PubChem BioAssay AID686943 – Drosophila RNAi Screening Center – 2013
In all, the deposit lists about 23,000 reagents; this is a random part of those that have a named target and a result. 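Extra replicates exist only for a retested subset of genes; insulin dose and duration not given; both raised and lowered dpERK matter.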 A plus sign joins genes that one reagent is predicted to hit. Further read-outs or replicates are left out here. The record does not give: the amount of reagent, the time to read-out.

Aim: 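Search across the genome for regulators of signalling from receptor tyrosine kinase to ERK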 (primary screen)
System: Drosophila S2R+ haemocyte-like cells expressing YFP-tagged ERK (Rolled)
Reagent: long dsRNA against Drosophila genes
Treatment: insulin stimulation versus unstimulated cells; dose and duration not given
Read-out: 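Antibody staining for doubly phosphorylated ERK divided by ERK-YFP signal, as plate z-scores, in insulin-treated and untreated cells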
Scale: replicate 1, z-score of dpERK with insulin and replicate 2, z-score of dpERK with insulin: higher = more active ERK per ERK-YFP after insulin

no.	Gene	dsRNA	replicate 1, z-score of dpERK with insulin	replicate 2, z-score of dpERK with insulin
1	CG13036 (retired record)	DRSC09916	-0.25	0.11
2	Vps13B	DRSC15060	0.98	0.08
3	CG18748	DRSC15385	0.27	0.01
4	CG11413 + CG4622	DRSC04109	-0.28	-0.56
5	CG3529	DRSC10369	0.42	0.82
6	Rcd7	DRSC10100	-0.13	-0.21
7	CG12299	DRSC02158	-0.18	0.36
8	CG31275	DRSC16919	-0.44	-1.24
9	CG12011	DRSC08219	-0.22	-0.49
10	CG5758	DRSC02889	-1.78	-2.25
11	CG5758	DRSC02890	-0.3	-0.16
12	CG2217 + CG42740	DRSC14141	-0.69	0.47
13	CG32182	DRSC09508	0.89	0.21
14	Tret1-2	DRSC07117	-0.32	0.17
15	CG43058	DRSC05434	-0.15	0.28
16	CG2972	DRSC18250	-0.63	-0.67
17	DZIP1	DRSC14620	-0.07	-0.15
18	nxf2	DRSC10403	0.06	1.52
19	Ir68a	DRSC10599	-0.11	0.59
20	CG42780	DRSC17514	-0.26	0.2
21	dpr6	DRSC09005	-3.18	-3.75
22	dpr6	DRSC10162	-0.26	0.27
23	dpr6	DRSC10163	0.14	1.4
24	MED23 + CG3700	DRSC04406	-0.17	-0.2
25	MED23 + CG3700	DRSC04407	-0.08	1.16
26	Gr64d + Gr64e	DRSC08446	1.37	0.77
27	Btnd	DRSC18316	-1.23	-0.22
28	Tom70	DRSC02990	0.68	-1.28
29	CR33317	DRSC02653	-0.13	0.05
30	Xxylt	DRSC04107	0.19	0.22
31	CheB93a	DRSC15044	-0.16	0.56
32	CG31997	DRSC17105	-0.1	-0.26
33	CG7378	DRSC20041	-0.15	-0.27
34	stol	DRSC01956	0.23	1.06
35	CG11815	DRSC08209	0.23	0.37
36	ine	DRSC00822	0.18	0.99
37	Acp33A + CG15841 (retired record)	DRSC01859	0.57	0.2
38	thoc5	DRSC04327	-0.23	-0.5
39	CG7492	DRSC10855	0.03	0.93
40	CG33998	DRSC05747	-0.07	-0.14
41	DNAlig4	DRSC19436	-1.17	-0.49
42	GstO2	DRSC10691	-0.64	-0.44
43	CG5466	DRSC15808	-3.54	-3.51
44	CG11122	DRSC19382	0.77	0.24
45	CG2767	DRSC15451	-0.38	0.08
46	CG10979	DRSC12153	0.13	0.33
47	Mtpbeta	DRSC04663	0.84	0.43
48	Cyp40	DRSC10980	0.13	-0.06
49	L	DRSC06666	-1.88	-2.48
50	L	DRSC06668	-0.44	-0.03
51	Acbp5	DRSC10548	0.26	-0.29
52	NimB1	DRSC01880	0.48	-0.41
53	Polr1E	DRSC14506	0.12	0.03
54	Polr1E	DRSC15358	0	-0.86
55	CG9986	DRSC16586	0.12	-0.25
56	Pfdn1	DRSC02325	-0.82	0.09
57	mino	DRSC14132	1.69	0.25

In a second layout: results already given.
{"Gene": "Acbp5", "dsRNA": "DRSC10548", "replicate 1, z-score of dpERK with insulin": 0.26, "replicate 2, z-score of dpERK with insulin": -0.29}
{"Gene": "NimB1", "dsRNA": "DRSC01880", "replicate 1, z-score of dpERK with insulin": 0.48, "replicate 2, z-score of dpERK with insulin": -0.41}
{"Gene": "Polr1E", "dsRNA": "DRSC14506", "replicate 1, z-score of dpERK with insulin": 0.12, "replicate 2, z-score of dpERK with insulin": 0.03}
{"Gene": "Polr1E", "dsRNA": "DRSC15358", "replicate 1, z-score of dpERK with insulin": 0, "replicate 2, z-score of dpERK with insulin": -0.86}
{"Gene": "CG9986", "dsRNA": "DRSC16586", "replicate 1, z-score of dpERK with insulin": 0.12, "replicate 2, z-score of dpERK with insulin": -0.25}
{"Gene": "Pfdn1", "dsRNA": "DRSC02325", "replicate 1, z-score of dpERK with insulin": -0.82, "replicate 2, z-score of dpERK with insulin": 0.09}
